Assay results published in patent publication US20100022481A1, “Drug Carriers, Their Synthesis, and Methods of Use Thereof” (priority 2006, published 2010).
Some results were stated once for a whole list of compounds, not compound by compound.

System: BALB/c mice
Assay type: in vivo
Conditions: IV, 3 per group, Beta-cyclodextrin 380 mg/kg, alendronate 100 mg/kg (molar ratio 1:1:1)

OC[C@H]1O[C@@H]2O[C@H]3[C@H](O)[C@@H](O)[C@@H](O[C@H]4[C@H](O)[C@@H](O)[C@@H](O[C@H]5[C@H](O)[C@@H](O)[C@@H](O[C@H]6[C@H](O)[C@@H](O)[C@@H](O[C@H]7[C@H](O)[C@@H](O)[C@@H](O[C@H]8[C@H](O)[C@@H](O)[C@@H](O[C@H]1[C@H](O)[C@H]2O)O[C@@H]8CO)O[C@@H]7CO)O[C@@H]6CO)O[C@@H]5CO)O[C@@H]4CO)O[C@@H]3CO [Beta-cyclodextrin, β-cyclodextrin]
death after administration (time): ≤ 7 days
